# Out of some 320,000 compounds screened, about 2,100 (0.66%) were called active. Inconclusive results, whose numbers are uncertain, are shown with a selection of clear calls. Calls come from the whole dose curve; as a rule, active = well fitted inhibition curve with a large enough effect in the signal ratio, with a control signal flat (not every such curve was filed as active); inconclusive = small, poorly fitted or top-dose-only effect, or effect the other way, or a change in a side signal; inactive = flat fitted curve, though single readings scatter; the % refers to the signal ratio. Potencies of inconclusive entries are doubtful fits and often do not repeat.
# Test: qHTS Assay for Lipid Storage Modulators in Drosophila S3 Cells
# Conditions: BODIPY lipid droplet fluorescence, 18-24 h, cells fed with added oleic acid; lipid storage change, negative = inhibition: at 46.1 µM (top of the series) unless noted
# Summary of the method: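 Laser-scanning cytometry quantifies lipid droplet accumulation (500–530 nm total intensity; droplet/cell object ratio) in oleic acid-fed (400 uM added) Drosophila S3 cells treated with a concentration series. 20 uM Triacsin C defined 100% inhibition.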
# % is set by controls: 0 for no effect and ±100 for the full control effect; potency is the fitted concentration of half-maximal effect.
Structure (SMILES),"lipid storage change, negative = inhibition",Potency,outcome
Cc1nnc(Nc2ccc(Cl)c(C(F)(F)F)c2)[nH]c1=O,inconclusive: 17.7%,–,–
CS(=O)(=O)N(CC(=O)N1CCN(c2cccc(Cl)c2)CC1)c1ccccc1,inconclusive: 50.4%,–,–
CC(Sc1nnc(-c2ccc(C(C)(C)C)cc2)n1C)C(N)=O (centres undefined),inconclusive: -29.4%,–,–
CCOc1ccc(NS(=O)(=O)c2ccc(C)c(C(N)=O)c2)cc1,–,"inconclusive: 20.6 µM [falling, single point]",–
O=C1CC(N2CCN(c3ccc(C(=O)c4ccc(F)cc4)cc3)CC2)C(=O)N1 (centres undefined),inconclusive: 102%,–,–
COc1cccc(C2=NNC(=NCc3ccccc3)SC2)c1,inconclusive: -4.95%,–,–
Cc1cccc(C)c1NC(=O)CSc1nnnn1-c1ccc(C(=O)O)cc1,inconclusive: 32.3%,–,–
O=C(O)C1CCCCC1C(=O)Nc1ccc(S(=O)(=O)N2CCCCC2)cc1 (centres undefined),–,"inconclusive: 6.51 µM [activator, single point]",–
O=C(NCc1ccc(F)cc1)C(Cc1ccccc1)n1cccc1 (centres undefined),–,"inconclusive: 0.651 µM [falling, single point]",–
O=C(O)CCN=C1CCCc2ccccc2N1,inactive: 1.94%,–,–
Cc1cc2ccccc2nc1SCC(=O)NC1CCCC1,inconclusive: -12.3%,–,–
Cc1cc(Br)cc(Br)c1OCC(=O)NNC(=O)c1ccoc1C,–,"inconclusive: 18.4 µM [activator, single point]",–
O=C1OC(N2CCN(C(=O)c3ccco3)CC2)c2ccccc21 (centres undefined),inconclusive: -22.8%,–,–
Cc1cc(-c2csc(N)n2)c(C)n1CCc1ccccc1,–,–,inactive [at 46.1 µM]
COC(=O)c1c(NC(=O)CN2C(=O)c3ccccc3C2=O)sc(Cc2ccc3c(c2)OCO3)c1C,–,"inconclusive: 7.31 µM [activator, partial curve]",–
O=C(COc1ccc(C(=S)N2CCC(Cc3ccccc3)CC2)cc1)N1CCOCC1,inconclusive: -3.7%,–,–
Cc1noc(C)c1COc1ccccc1C(=O)NCCc1ccc(Cl)cc1,inconclusive: 3.92%,–,–
COc1cccc(C(=O)N2N=C(c3cccc(OC)c3)CC2(O)C(F)(F)F)c1 (centres undefined),inconclusive: 21.9%,–,–
Cc1csc(NC(=O)CN2C(=O)c3ccccc3S2(=O)=O)n1,–,"inconclusive: 1.16 µM [activator, full curve, poor fit]",–
COc1ccc(C(=O)Nc2ccc(S(=O)(=O)N3CCCC3)cc2)cc1[N+](=O)[O-],inconclusive: -23.6%,–,–
COc1ccc(Cl)cc1C(=O)NNC(=O)c1ccncc1,inconclusive: 35.3%,–,–
COc1ccc(CN2CCNC(=O)C2CC(=O)NCCSc2nccn2C)cc1OC (centres undefined),inconclusive: 0.0746%,–,–
Cc1ccsc1C(=O)OCC(=O)NCc1ccco1,inconclusive: 21.2% [at 9.22 µM],–,–
Cc1cc(C)cc(C(=O)NC(=S)Nc2ccc3[nH]c(=O)[nH]c3c2)c1,–,"inconclusive: 14.6 µM [activator, partial curve]",–
COc1cccc(C2(c3cccc(OC)c3)CC2C(=O)Nc2ccccc2Cl)c1 (centres undefined),inconclusive: -18.1%,–,–
Oc1c(CN2CCN(c3ccccn3)CC2)cc(Cl)c2cccnc12,inconclusive: 14.6%,–,–
O=C(CN1C(=O)CSc2ncccc21)Nc1cccc(Cl)c1,inconclusive: 0.708%,–,–

Structure (SMILES),"lipid storage change, negative = inhibition",Potency,outcome
CC1(c2nnc(-c3ccc(Cl)cc3)o2)CC(c2cccc(Cl)c2)=NO1 (centres undefined),inconclusive: 45.8%,–,–
O=C1CSC(c2cn(-c3ccccc3)nc2-c2cc3ccccc3oc2=O)N1Cc1ccco1 (centres undefined),inconclusive: -22%,–,–
CC(=O)Nc1ccc(NC(=O)c2ccc(C)c(S(=O)(=O)Nc3cccc(C)c3)c2)cc1,–,"inconclusive: 29.1 µM [falling, single point]",–
CC(C)(C)C(=O)/C(C#N)=c1\s/c(=C\c2ccncc2)c(=O)n1CCCN1CCOCC1,inconclusive: 2.64%,–,–
COc1cc(OC)cc(N(C(=O)CNC(=O)c2cccs2)C(C(=O)NCC2CCCO2)c2ccccc2)c1 (centres undefined),inconclusive: 15.2%,–,–
CCOc1ccc(N=Cc2c(C)[nH]n(-c3nc4ccccc4[nH]3)c2=O)cc1,inconclusive: -24.1%,–,–
Cc1ccccc1OCCC(=O)Nc1ccccc1C(=O)N1CCCCC1,–,active: 5.8 µM,–
O=C(CSc1ccc2nnc(-c3ccccn3)n2n1)Nc1ccccc1C(F)(F)F,inconclusive: 15.2%,–,–
CN(C)S(=O)(=O)c1ccc(C(=O)/C=C/c2cccnc2)cc1,–,active: 0.326 µM,–
NS(=O)(=O)c1ccc2c(c1)C1C=CCC1C(C1CC=CCC1)N2 (centres undefined),inconclusive: -22.4%,–,–
Cc1nc(CS(=O)(=O)c2ccccc2)cc(Sc2ccc(Cl)cc2)n1,–,–,inactive [at 46.1 µM]
O=S(=O)(c1ccc(Br)cc1)N1CCOC12CCCCC2,inconclusive: 49.2%,–,–
CN(c1ccccc1)S(=O)(=O)c1ccc(Cl)c(C(=O)OCC(N)=O)c1,inconclusive: -32.2%,–,–
COc1ccc(Cl)cc1N(CC(=O)NC1CC2CCC1C2)S(=O)(=O)c1ccccc1 (centres undefined),inconclusive: -93.1%,–,–
Cn1c(SCC(=O)NCC2CCCO2)ncc(C(=O)Nc2ccc(Cl)cc2)c1=O (centres undefined),inconclusive,–,–
N#CCCN(C(=O)COC(=O)c1cc(S(=O)(=O)N2CCOCC2)ccc1Cl)c1ccc(F)cc1,inconclusive: 28.3%,–,–
Cc1ccc(/C=C/c2onc(C)c2S(=O)(=O)N2CCC(C(=O)N3CCCCC3)CC2)cc1,inconclusive: -63.6%,–,–
Cc1ccc(S(=O)(=O)N2CCC(C(=O)NCCCN3CCOCC3)CC2)cc1,–,"inconclusive: 3.66 µM [activator, full curve]",–
CO[C@H]1[C@@H]2C=CO[C@@H](O[C@H]3O[C@@H](CO)[C@H](O)[C@@H](O)[C@@H]3O)[C@@H]2[C@@]2(CO)O[C@@H]12,–,"inconclusive: 6.51 µM [falling, single point]",–
Cn1cc(C(=O)N2CCN(C(=O)c3ccco3)CC2)c2c3ccccc3n(C)c2c1=O,inconclusive: 33.9%,–,–
N#CCCn1cc(C(=O)Nc2cccc(C(=O)O)c2)c(-c2ccc(Cl)cc2)n1,–,"inconclusive: 25.9 µM [activator, single point]",–
CC(C)c1ccc(N(CC(=O)N2CCOCC2)S(C)(=O)=O)cc1,inconclusive: 2.42%,–,–
Cc1ccc(N2C(=O)CC(Sc3ncn[nH]3)C2=O)cc1 (centres undefined),inconclusive: 13.4%,–,–
COCCN1C(=O)C(=O)/C(=C(/O)c2ccc(S(=O)(=O)N3CCOCC3)cc2)C1c1ccc(O)cc1 (centres undefined),inconclusive: 13.1%,–,–
Cc1nc(N)c(C#N)c(-c2cccnc2)c1-c1ccccc1,inconclusive: -75.4%,–,–
Oc1ccccc1-n1c(-c2ccccc2)ccc1-c1ccccc1,–,active: 2.06 µM,–
O=S1(=O)N=C(N/N=C/C=C/c2ccccc2)c2ccccc21,–,"inconclusive: 20.6 µM [falling, single point]",–

# Looked up by structure from above, three records:
Structure (SMILES),"lipid storage change, negative = inhibition",Potency,outcome
O=C(O)C1CCCCC1C(=O)Nc1ccc(S(=O)(=O)N2CCCCC2)cc1 (centres undefined),–,"inconclusive: 6.51 µM [activator, single point]",–
O=C1OC(N2CCN(C(=O)c3ccco3)CC2)c2ccccc21 (centres undefined),inconclusive: -22.8%,–,–
COc1ccc(Cl)cc1C(=O)NNC(=O)c1ccncc1,inconclusive: 35.3%,–,–

# Continued:

Structure (SMILES),"lipid storage change, negative = inhibition",Potency,outcome
CCOC(=O)c1cnc2ccc(OCC)cc2c1N(C)Cc1ccccc1,inconclusive: -27.8%,–,–
Cc1cc(NS(=O)(=O)c2ccc(NC(=O)Nc3ccccc3)cc2)no1,inconclusive: -3.19%,–,–
COc1ccc(-n2c(=O)c(NC(=O)c3ccccc3)c3n(c2=S)CCCCC3)cc1,inconclusive: 18.3%,–,–
COCCCNC(=S)NNC(=O)c1ccoc1C,inconclusive: 11.4%,–,–
C=CCc1cc(C)ccc1OCCn1ccnc1,inconclusive: -2.68%,–,–
COC(=O)c1sccc1Oc1c(Cl)cccc1[N+](=O)[O-],inconclusive: -19.1%,–,–
CC(=O)c1cc(NC(=O)c2ccc([N+](=O)[O-])cc2)c(=O)oc1C,–,"inconclusive: 0.0366 µM [falling, full curve, poor fit]",–
O=C(NC1CCSC1)c1cccc(Cl)c1 (centres undefined),inconclusive: 8.43%,–,–
COC(=O)CON1C(=O)c2ccccc2C1=O,–,active: 25.9 µM,–
Cn1cc(S(=O)(=O)NC(c2ccccc2)c2ccccc2)c(=O)n(C)c1=O,inconclusive: -8.79%,–,–
CN1/C(=N\O)c2cccc3cccc1c23,–,"inconclusive: 4.61 µM [activator, single point]",–
CCc1ccc(CNC(=O)C2Cc3cc(S(=O)(=O)N4CCCC4)ccc3N2C(C)=O)cc1 (centres undefined),–,active: 11.6 µM,–
COc1ccc(CCC(=O)NNC(=O)c2cccs2)cc1,inconclusive: 12.9%,–,–
CCOc1ccc(-n2cc(C(=O)NCc3ccco3)c3cc(OC)c(OC)cc3c2=O)cc1,inconclusive: 13.3%,–,–
Cn1cnc([N+](=O)[O-])c1Sc1n[nH]c(N)n1,inconclusive: 0.167%,–,–
COc1ccc(CC(=O)Nc2ccc(-c3cn4ccc(C)cc4n3)cc2)cc1,inconclusive: 3.01%,–,–
COc1ccc(CSc2nnc3[nH]c(=O)cc(N)n23)cc1,inconclusive: -5.68%,–,–
Cc1cc(C)cc(SCc2noc(C(=O)NCc3ccccc3)c2C(=O)NCc2ccccc2)c1,inactive: 5.46%,–,–
COc1ccc(CN2C(=O)C(Cc3ccccc3)Nc3ncnc(N4CCN(c5ccccc5)CC4)c32)cc1 (centres undefined),inconclusive: 24.5%,–,–
Cc1nc2ccccc2nc(=O)c1NNc1ccc([N+](=O)[O-])cc1,inconclusive: 12%,–,–
O=C(O)c1ccc2c(c1)C(=O)N([C@H](Cc1ccc(Cl)cc1)C(=O)O)C2=O,inconclusive: 13.9%,–,–
CC1CCN(C(=O)CN2C(=O)c3ccccc3S2(=O)=O)CC1,inconclusive: 6.18%,–,–
CCOc1ccc(N2CC(C(=O)NCCN3C(=O)S/C(=C\c4ccc(OC)c(OC)c4)C3=O)CC2=O)cc1 (centres undefined),–,"inconclusive: 3.66 µM [activator, single point]",–
COC(=O)c1ccc2c(=O)n(CCN3CCOCC3)c(SCC(=O)C(C)(C)C)nc2c1,inconclusive: 21.3%,–,–
Cc1cn(C2OC(COC(=O)c3ccccc3)C(O)C2Cl)c(=O)[nH]c1=O (centres undefined),inconclusive: 19.5% [at 9.22 µM],–,–
